Results taken from ChEMBL document CHEMBL1909621, “Synthesis and biological evaluation of novel nitrogen- and sulfur-containing hetero-1,4-naphthoquinones as potent antifungal and antibacterial agents” (2011).

Tested on: Aspergillus niger
Assay: Antifungal activity against Aspergillus niger F-1119 at 0.1% after 48 to 72 hrs by diffusion technique
Assay type: functional
Outline: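 Fungi. Disk diffusion: 10⁹ spores (cells)/1 mL inoculum. Incubated 48–72 h at 28–30 °C. Zone around disk measured, with a nystatin control disk. Serial dilution: compounds dissolved in DMSO and diluted into wort agar, then inoculated. Incubated at 30 °C for 24–72 h. MIC recorded.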

## NYSTATIN
  inhibition zone (IZ): 20 mm
